From publication PMC9038911
These are yes or no findings as the source states them, for the method shown. For some of these results: In cells and extracts the contact can be indirect. Some entries that bind do so weakly or less than the wild type. For some of these results: Tags and fused reporters may be left off the sequences shown.

Sequences of proteins named here, by UniProt entry; tags and fusion partners are left off. Residues count along the entry.
UniProt Q9M5J9, residues 22-330: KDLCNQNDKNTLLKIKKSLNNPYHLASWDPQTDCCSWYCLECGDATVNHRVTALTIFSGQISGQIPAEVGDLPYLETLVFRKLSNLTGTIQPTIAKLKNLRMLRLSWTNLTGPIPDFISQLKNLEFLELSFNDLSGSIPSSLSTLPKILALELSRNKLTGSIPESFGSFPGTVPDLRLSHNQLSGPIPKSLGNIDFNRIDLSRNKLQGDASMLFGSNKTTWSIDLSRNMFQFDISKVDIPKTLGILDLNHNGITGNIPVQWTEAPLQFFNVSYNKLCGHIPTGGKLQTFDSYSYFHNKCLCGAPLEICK
UniProt A0A1D9QD76, residues 22-105: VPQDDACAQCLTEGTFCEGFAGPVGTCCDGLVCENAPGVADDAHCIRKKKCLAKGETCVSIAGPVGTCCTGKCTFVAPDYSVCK

Tests used:
[1] = biological target: SsPINE1-GFP (expressed in N. benthamiana) (Sclerotinia sclerotiorum); assay: co-IP; GFP- and 3xFlag-tagged constructs co-infiltrated in N. benthamiana; leaf lysate 48 h after infiltration; anti-Flag agarose (Flag IP) or anti-GFP agarose (GFP IP); Western blot with anti-GFP or anti-Flag
[2] = biological target: AtPGIP1-3xFlag (Arabidopsis thaliana) (UniProt Q9M5J9); assay: co-IP; modified co-IP: purified competing protein from yeast (0, 100 ng and 10 μg) added to leaf lysate of co-infiltrated leaves, 30 min, then Flag IP and anti-GFP blot; pair co-expressed in the leaves
[3] = biological target: AtPGIP1-3xFlag (Arabidopsis thaliana) (UniProt Q9M5J9); assay: co-IP; GFP- and 3xFlag-tagged constructs co-infiltrated in N. benthamiana; leaf lysate 48 h after infiltration; anti-Flag agarose (Flag IP) or anti-GFP agarose (GFP IP); Western blot with anti-GFP or anti-Flag
[4] = biological target: AtPGIP1-3xFlag (Arabidopsis thaliana) (UniProt Q9M5J9); assay: co-IP; modified co-IP: the three constructs SsPINE1-GFP, SsPG1-GFP and AtPGIP1-3xFlag co-infiltrated together into tobacco leaves; Flag IP, anti-GFP blot
[5] = biological target: AtPGIP1-nRFP (Arabidopsis thaliana) (UniProt Q9M5J9); assay: split reporter; BiFC with nRFP and cRFP fusions co-agroinfiltrated into N. benthamiana leaves; confocal microscopy 48 h after agroinfiltration
[6] = biological target: AtPGIP1-3xFlag (Arabidopsis thaliana) (UniProt Q9M5J9); assay: co-IP; modified co-IP: purified competing protein from yeast (0, 100 ng and 10 μg) added to leaf lysate of co-infiltrated leaves, 30 min, then Flag IP and anti-GFP blot; pair of the added purified protein with AtPGIP1-3xFlag of the lysate; only the binder purified
[7] = biological target: signal peptide-truncated SsPINE1 (SsPINE1^ΔSP), yeast two-hybrid fusion (Sclerotinia sclerotiorum); assay: two-hybrid; targeted assay, GAL4-based Matchmaker Gold; pGADT7 and pGBKT7 constructs co-transformed in pairs into yeast strain Gold; SD/-His,-Ade,-Leu,-Trp with aureobasidin A, X-α-gal staining; SsPINE1 and AtPGIP1 each as bait and as prey

AtPGIP1-3xFlag (from UniProt Q9M5J9 22-330)
binding [1]: binds

SsPINE1-GFP (expressed in N. benthamiana) (from UniProt A0A1D9QD76 22-105)
binding [2]: binds | binding [3]: binds | binding [4]: binds

SsPINE1-cRFP (from UniProt A0A1D9QD76 22-105)
binding [5]: binds

purified SsPINE1-GFP-His fusion protein from yeast (from UniProt A0A1D9QD76 22-105) (domain or fragment)
binding [6]: binds

B1: AtPGIP2, yeast two-hybrid fusion (protein, UniProt Q9M5J8 1-330)
chain: MDKTMTLFLLLSTLLLTTSLAKDLCHKDDKTTLLKIKKSLNNPYHLASWDPKTDCCSWYCLECGDATVNHRVTSLIIQDGEISGQIPPEVGDLPYLTSLIFRKLTNLTGHIQPTIAKLKNLTFLRLSWTNLTGPVPEFLSQLKNLEYIDLSFNDLSGSIPSSLSSLRKLEYLELSRNKLTGPIPESFGTFSGKVPSLFLSHNQLSGTIPKSLGNPDFYRIDLSRNKLQGDASILFGAKKTTWIVDISRNMFQFDLSKVKLAKTLNNLDMNHNGITGSIPAEWSKAYFQLLNVSYNRLCGRIPKGEYIQRFDSYSFFHNKCLCGAPLPSCK
binding [7]: no binding
